Laboratory results from PMC3762332.
The exact form of at least one protein or probe is not confirmed. For some assays here: Tags and fusion partners may be left off the protein sequences shown.

Sequences of proteins named here, by UniProt entry; tags and fusion partners are left off. A change or cut given only in a name is not applied to a line headed by its entry.
UniProt P43694: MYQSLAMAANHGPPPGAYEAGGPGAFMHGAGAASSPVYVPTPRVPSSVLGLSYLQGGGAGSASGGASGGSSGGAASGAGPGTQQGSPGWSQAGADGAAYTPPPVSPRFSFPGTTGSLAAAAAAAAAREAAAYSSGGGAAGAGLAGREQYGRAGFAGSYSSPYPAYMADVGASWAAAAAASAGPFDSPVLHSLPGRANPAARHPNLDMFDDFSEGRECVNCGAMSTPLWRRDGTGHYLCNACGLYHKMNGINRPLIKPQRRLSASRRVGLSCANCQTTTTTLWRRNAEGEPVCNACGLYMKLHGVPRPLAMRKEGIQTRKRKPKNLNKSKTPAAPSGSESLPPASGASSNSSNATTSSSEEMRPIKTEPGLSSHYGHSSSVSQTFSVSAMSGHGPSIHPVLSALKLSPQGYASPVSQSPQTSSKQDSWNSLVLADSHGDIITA
UniProt P20719: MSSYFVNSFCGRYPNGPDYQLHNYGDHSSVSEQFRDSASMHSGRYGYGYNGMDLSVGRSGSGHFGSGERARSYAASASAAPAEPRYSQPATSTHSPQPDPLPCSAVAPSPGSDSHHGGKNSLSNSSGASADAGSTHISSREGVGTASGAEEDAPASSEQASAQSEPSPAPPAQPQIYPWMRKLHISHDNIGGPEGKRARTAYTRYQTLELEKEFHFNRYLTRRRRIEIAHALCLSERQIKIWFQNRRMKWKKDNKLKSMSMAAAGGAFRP
UniProt P37231: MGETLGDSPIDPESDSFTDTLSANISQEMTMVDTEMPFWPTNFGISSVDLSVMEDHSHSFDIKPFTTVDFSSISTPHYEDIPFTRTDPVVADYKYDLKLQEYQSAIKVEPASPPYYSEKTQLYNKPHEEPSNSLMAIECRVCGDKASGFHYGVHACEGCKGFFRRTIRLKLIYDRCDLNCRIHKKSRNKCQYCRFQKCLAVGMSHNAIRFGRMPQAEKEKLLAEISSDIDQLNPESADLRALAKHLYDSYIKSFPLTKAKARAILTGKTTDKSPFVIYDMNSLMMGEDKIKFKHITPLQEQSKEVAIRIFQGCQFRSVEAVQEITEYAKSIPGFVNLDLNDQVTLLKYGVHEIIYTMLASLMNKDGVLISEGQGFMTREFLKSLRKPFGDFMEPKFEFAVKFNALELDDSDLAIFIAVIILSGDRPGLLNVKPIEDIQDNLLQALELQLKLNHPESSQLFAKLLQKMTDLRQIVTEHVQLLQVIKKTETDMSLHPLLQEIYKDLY
UniProt P19793: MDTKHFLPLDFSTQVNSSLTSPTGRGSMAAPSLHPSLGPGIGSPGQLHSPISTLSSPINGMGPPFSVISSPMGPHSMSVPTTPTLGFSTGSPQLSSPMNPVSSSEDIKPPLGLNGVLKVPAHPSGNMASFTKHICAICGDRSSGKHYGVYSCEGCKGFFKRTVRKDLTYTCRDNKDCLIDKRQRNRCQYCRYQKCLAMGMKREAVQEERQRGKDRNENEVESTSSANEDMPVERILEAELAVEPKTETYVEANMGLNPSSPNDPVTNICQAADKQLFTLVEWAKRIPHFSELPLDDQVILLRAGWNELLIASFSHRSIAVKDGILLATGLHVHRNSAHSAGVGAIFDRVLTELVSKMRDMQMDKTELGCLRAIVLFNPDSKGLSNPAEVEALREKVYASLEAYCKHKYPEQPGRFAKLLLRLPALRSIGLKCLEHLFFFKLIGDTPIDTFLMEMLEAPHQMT
UniProt Q8NC26: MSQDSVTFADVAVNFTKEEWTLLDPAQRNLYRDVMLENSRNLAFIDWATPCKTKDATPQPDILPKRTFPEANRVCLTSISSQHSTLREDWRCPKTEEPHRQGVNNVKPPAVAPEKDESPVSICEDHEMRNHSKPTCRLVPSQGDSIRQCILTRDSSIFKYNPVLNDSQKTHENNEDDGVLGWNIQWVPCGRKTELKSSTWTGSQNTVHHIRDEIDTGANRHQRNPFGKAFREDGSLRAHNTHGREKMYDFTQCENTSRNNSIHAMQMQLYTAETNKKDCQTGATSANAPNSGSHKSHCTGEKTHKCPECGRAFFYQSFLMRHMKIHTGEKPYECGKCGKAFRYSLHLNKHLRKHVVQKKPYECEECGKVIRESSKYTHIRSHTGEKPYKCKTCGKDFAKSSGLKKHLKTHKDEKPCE
UniProt Q9BWM5: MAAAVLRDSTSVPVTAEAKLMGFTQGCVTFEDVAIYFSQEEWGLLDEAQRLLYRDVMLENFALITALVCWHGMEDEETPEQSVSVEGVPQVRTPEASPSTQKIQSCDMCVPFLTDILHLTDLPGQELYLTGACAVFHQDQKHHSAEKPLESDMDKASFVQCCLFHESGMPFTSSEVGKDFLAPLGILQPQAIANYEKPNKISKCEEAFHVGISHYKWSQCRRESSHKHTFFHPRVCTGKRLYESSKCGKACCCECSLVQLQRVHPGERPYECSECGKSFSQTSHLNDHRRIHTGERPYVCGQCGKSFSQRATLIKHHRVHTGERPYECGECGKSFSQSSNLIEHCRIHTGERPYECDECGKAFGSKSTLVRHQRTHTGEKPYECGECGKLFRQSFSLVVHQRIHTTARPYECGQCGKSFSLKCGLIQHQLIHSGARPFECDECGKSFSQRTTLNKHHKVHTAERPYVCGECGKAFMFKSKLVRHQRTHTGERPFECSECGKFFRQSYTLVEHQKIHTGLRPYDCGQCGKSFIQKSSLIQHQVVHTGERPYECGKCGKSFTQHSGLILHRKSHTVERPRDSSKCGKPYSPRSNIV
UniProt O00716: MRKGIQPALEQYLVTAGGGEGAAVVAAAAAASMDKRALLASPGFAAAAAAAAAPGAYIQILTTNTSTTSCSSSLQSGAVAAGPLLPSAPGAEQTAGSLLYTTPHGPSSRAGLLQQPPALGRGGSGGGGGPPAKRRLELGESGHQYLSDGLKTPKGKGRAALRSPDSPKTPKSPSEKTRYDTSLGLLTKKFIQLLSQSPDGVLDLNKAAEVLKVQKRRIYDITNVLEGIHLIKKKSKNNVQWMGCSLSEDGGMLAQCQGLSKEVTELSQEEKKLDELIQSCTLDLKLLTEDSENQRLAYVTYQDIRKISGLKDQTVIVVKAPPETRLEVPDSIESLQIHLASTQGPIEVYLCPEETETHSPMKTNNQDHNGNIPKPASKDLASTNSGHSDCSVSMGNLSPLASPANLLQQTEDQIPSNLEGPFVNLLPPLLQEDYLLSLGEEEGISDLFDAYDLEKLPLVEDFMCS
UniProt Q9Y2L8: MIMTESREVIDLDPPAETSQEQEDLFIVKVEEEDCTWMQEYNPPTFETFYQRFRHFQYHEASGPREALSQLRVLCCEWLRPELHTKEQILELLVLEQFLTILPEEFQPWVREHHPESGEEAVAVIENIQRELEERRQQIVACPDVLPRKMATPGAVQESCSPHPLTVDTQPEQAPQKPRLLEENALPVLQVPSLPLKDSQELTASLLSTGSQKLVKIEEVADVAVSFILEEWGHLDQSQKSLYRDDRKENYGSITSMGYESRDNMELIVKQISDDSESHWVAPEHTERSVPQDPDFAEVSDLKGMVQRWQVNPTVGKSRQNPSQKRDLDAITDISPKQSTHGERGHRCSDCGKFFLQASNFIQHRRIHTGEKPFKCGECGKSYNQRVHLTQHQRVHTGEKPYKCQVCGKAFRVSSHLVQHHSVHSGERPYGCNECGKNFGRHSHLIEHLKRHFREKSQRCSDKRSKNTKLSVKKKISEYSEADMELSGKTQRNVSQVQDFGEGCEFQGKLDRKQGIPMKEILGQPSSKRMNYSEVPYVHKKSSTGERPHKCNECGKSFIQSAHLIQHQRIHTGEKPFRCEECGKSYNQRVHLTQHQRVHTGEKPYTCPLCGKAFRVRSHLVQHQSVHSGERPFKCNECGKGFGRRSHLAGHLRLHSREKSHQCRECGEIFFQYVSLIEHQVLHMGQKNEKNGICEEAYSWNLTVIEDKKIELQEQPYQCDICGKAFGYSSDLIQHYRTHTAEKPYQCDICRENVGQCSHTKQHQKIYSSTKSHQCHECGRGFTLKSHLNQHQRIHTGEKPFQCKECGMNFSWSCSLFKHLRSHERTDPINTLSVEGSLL
UniProt Q8IW36: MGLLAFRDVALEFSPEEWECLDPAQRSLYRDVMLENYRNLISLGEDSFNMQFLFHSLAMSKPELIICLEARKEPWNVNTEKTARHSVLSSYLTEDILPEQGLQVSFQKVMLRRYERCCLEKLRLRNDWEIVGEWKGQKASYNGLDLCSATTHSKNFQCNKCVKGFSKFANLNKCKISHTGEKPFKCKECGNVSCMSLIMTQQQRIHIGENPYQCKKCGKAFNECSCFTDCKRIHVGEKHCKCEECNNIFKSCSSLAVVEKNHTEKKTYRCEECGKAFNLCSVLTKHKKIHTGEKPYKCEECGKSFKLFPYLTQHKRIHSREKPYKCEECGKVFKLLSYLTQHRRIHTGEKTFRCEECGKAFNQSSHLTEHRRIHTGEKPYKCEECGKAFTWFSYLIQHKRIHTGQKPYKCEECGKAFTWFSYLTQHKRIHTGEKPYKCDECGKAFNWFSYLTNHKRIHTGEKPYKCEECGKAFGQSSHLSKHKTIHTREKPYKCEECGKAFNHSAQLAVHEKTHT
UniProt P05549: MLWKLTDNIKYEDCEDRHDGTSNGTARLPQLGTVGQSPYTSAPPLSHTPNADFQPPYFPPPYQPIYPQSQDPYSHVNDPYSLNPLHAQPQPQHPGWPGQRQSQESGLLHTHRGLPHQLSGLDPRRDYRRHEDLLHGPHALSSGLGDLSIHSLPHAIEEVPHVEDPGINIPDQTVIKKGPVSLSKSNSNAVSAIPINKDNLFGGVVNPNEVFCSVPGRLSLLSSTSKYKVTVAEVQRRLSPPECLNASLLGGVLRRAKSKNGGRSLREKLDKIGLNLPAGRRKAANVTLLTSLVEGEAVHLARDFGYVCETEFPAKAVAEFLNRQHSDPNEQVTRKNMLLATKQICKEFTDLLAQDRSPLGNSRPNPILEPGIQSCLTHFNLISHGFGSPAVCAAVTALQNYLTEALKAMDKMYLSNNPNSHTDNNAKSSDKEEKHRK

Legend:
Assay in all cases: protein microarray
Settings in all cases: 10-fold cold unmethylated competitor; 5mC at CpG (SssI, both strands); recombinant protein; protein details: GST (N-terminal); label: Cy5
GATA4 (Homo sapiens) = GATA4 (Homo sapiens) (UniProt P43694)
HOXA5 (Homo sapiens) = HOXA5 (Homo sapiens) (UniProt P20719)
KEAP1 (Homo sapiens) = KEAP1 (Homo sapiens) (UniProt Q14145)
NRF1 (Homo sapiens) = target: T1, NRF1 (Homo sapiens) (UniProt Q16656)
T1 sequence (looked up, limits assumed): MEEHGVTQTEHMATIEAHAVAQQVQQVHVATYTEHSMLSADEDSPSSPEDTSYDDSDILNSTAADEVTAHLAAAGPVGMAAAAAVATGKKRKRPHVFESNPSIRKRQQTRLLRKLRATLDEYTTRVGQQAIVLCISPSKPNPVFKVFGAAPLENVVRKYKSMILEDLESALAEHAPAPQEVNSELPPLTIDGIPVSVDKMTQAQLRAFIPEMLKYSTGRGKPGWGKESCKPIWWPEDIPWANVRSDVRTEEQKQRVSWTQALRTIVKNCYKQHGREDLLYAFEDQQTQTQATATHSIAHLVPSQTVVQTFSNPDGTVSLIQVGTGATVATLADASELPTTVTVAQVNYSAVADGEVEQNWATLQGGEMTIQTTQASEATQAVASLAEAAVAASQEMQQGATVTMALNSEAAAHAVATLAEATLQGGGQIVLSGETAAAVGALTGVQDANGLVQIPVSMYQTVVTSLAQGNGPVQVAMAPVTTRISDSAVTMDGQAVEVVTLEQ

PPARG (Homo sapiens) = PPARG (Homo sapiens) (UniProt P37231)
RNF138 (Homo sapiens) = target: T2, RNF138 (Homo sapiens) (UniProt Q8WVD3)
T2 sequence (looked up, limits assumed): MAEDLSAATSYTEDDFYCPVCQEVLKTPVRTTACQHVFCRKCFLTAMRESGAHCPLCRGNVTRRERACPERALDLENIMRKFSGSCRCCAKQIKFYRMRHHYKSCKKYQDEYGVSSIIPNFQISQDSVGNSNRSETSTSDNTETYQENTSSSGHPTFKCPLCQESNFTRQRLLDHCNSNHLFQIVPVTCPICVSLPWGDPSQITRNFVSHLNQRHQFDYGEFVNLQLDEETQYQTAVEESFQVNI

RXRA (Homo sapiens) = RXRA (Homo sapiens) (UniProt P19793)
SCAPER (Homo sapiens) = target: T3, SCAPER (Homo sapiens) (UniProt Q9BY12)
T3 sequence (looked up, limits assumed): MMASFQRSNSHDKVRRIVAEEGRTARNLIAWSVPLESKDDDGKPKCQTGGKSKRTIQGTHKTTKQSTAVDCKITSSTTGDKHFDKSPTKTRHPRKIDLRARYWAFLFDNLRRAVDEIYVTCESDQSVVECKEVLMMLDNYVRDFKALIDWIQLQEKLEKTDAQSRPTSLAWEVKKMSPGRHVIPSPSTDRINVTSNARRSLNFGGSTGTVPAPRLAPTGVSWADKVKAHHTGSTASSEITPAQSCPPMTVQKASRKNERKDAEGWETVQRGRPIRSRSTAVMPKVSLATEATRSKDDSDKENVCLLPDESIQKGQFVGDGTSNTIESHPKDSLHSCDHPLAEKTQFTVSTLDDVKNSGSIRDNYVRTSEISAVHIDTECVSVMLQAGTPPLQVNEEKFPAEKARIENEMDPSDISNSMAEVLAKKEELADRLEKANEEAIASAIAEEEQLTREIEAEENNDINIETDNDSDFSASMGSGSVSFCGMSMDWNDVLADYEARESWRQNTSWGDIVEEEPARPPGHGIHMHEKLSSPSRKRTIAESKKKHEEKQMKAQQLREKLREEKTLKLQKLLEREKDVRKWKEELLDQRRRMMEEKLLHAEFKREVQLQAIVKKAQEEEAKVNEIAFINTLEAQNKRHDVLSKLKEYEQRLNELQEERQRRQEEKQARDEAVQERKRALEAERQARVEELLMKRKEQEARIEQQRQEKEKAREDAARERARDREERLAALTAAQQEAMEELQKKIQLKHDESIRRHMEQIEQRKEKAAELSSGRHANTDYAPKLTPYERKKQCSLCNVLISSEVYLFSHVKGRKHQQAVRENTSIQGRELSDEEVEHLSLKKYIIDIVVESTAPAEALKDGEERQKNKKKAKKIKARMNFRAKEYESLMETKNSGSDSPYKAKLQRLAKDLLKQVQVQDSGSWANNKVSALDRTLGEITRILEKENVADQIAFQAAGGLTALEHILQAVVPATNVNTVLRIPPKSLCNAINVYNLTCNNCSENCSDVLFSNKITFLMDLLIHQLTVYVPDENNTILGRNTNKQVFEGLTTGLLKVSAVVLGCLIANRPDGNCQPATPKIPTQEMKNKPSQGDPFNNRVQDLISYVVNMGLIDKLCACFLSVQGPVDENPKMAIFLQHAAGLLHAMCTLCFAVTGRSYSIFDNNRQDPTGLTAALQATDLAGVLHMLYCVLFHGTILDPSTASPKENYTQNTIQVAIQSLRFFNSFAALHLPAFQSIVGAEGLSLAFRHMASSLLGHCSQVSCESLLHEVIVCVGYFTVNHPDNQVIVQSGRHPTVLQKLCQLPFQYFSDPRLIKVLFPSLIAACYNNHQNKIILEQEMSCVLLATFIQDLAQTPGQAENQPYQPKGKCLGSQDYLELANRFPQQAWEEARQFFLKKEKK

ZNF114 (Homo sapiens) = ZNF114 (Homo sapiens) (UniProt Q8NC26)
ZNF416 (Homo sapiens) = ZNF416 (Homo sapiens) (UniProt Q9BWM5)
CERS4 (Homo sapiens) = target: T4, CERS4 (Homo sapiens) (UniProt Q9HA82)
T4 sequence (looked up, limits assumed): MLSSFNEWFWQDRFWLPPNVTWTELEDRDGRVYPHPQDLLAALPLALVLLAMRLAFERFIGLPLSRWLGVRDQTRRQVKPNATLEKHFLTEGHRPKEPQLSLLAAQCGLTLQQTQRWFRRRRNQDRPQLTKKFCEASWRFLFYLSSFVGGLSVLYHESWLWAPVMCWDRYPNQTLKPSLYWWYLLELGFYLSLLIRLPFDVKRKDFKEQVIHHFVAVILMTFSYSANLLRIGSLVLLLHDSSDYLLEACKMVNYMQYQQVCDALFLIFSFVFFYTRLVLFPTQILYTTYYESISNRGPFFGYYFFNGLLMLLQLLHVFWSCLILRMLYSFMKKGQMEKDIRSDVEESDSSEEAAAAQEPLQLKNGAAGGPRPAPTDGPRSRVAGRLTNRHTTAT

E2F3 (Homo sapiens) = E2F3 (Homo sapiens) (UniProt O00716)
ZKSCAN5 (Homo sapiens) = ZKSCAN5 (Homo sapiens) (UniProt Q9Y2L8)
ZNF695 (Homo sapiens) = ZNF695 (Homo sapiens) (UniProt Q8IW36)
TFAP2A (Homo sapiens) = TFAP2A (Homo sapiens) (UniProt P05549)
BCL3 (Homo sapiens) = target: T5, BCL3 (Homo sapiens) (UniProt P20749)
T5 sequence (looked up, limits assumed): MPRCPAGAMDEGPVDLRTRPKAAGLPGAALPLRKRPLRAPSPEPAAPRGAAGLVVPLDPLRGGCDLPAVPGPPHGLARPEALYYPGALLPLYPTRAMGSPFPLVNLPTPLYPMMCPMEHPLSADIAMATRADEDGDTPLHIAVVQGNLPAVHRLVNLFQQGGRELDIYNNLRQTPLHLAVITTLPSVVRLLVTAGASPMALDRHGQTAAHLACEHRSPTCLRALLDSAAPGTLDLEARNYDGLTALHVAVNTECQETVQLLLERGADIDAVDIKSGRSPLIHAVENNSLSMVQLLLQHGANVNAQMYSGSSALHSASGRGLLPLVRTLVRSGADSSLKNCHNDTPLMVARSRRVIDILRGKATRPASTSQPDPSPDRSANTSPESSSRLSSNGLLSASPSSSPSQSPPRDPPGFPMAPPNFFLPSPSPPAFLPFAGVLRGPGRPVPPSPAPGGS

HOXA9 (Homo sapiens) = HOXA9 (Homo sapiens) (UniProt P31269)
CALR (Homo sapiens) = target: T6, CALR (Homo sapiens) (UniProt P27797)
T6 sequence (looked up, limits assumed): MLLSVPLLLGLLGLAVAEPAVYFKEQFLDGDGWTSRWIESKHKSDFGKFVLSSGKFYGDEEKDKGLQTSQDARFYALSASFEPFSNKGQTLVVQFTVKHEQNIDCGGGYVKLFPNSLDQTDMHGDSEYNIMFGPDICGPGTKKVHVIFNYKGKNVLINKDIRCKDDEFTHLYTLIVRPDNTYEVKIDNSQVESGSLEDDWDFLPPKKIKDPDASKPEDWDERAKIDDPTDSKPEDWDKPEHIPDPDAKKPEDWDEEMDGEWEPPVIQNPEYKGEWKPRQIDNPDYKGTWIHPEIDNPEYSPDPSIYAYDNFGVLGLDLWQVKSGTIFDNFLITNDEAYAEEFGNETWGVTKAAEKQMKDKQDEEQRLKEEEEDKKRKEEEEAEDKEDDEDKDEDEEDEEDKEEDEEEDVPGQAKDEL

ZCCHC7 (Homo sapiens) = target: T7, ZCCHC7 (Homo sapiens) (UniProt Q8N3Z6)
T7 sequence (looked up, limits assumed): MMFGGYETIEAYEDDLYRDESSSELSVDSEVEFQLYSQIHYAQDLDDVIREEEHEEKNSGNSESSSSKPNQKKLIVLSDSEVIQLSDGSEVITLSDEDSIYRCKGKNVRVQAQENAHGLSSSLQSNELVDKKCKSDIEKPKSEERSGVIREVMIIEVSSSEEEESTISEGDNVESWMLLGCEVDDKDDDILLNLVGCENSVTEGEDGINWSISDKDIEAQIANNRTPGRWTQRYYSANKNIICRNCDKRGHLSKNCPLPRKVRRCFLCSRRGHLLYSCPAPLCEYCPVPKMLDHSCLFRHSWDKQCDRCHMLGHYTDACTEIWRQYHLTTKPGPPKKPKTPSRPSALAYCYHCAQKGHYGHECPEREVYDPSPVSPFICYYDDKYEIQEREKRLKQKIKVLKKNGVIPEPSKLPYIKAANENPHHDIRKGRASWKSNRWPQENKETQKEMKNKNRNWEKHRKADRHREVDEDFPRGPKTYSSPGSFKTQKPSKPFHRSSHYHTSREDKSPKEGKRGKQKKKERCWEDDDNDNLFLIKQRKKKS

Measured: binding result

AAATGGCGAAAAAATGGCGCCCTATAGTGAGTGCTATTA (double strand) [M96]
binds: GATA4 (Homo sapiens) | HOXA5 (Homo sapiens) | KEAP1 (Homo sapiens) | NRF1 (Homo sapiens) | PPARG (Homo sapiens) | RNF138 (Homo sapiens) | RXRA (Homo sapiens) | SCAPER (Homo sapiens) | ZNF114 (Homo sapiens) | ZNF416 (Homo sapiens)

TCGCTGTTGAAATCGCTGTTGCCCTATAGTGAGTGCTATTA (double strand) [M283]
binds: CERS4 (Homo sapiens) | E2F3 (Homo sapiens) | ZKSCAN5 (Homo sapiens) | ZNF114 (Homo sapiens) | ZNF416 (Homo sapiens) | ZNF695 (Homo sapiens)

CAAACGCTACCCCAAACGCTACCCTATAGTGAGTGCTATTA (double strand) [M279]
binds: CERS4 (Homo sapiens) | E2F3 (Homo sapiens) | GATA4 (Homo sapiens) | TFAP2A (Homo sapiens) | ZKSCAN5 (Homo sapiens) | ZNF114 (Homo sapiens) | ZNF416 (Homo sapiens) | ZNF695 (Homo sapiens)

AAGATGGCGAAAAAGATGGCGCCCTATAGTGAGTGCTATTA (double strand) [M74]
not listed: KEAP1 (Homo sapiens) | CERS4 (Homo sapiens) | ZKSCAN5 (Homo sapiens) | ZNF695 (Homo sapiens) | TFAP2A (Homo sapiens) | CALR (Homo sapiens) | ZCCHC7 (Homo sapiens)
binds: all other assays above

GGGAAACCGAAACAAAGGGAAACCGAAACCCCTATAGTGAGTGCTATTA (double strand) [M18]
not listed: KEAP1 (Homo sapiens) | NRF1 (Homo sapiens) | PPARG (Homo sapiens) | RNF138 (Homo sapiens) | CERS4 (Homo sapiens) | BCL3 (Homo sapiens) | HOXA9 (Homo sapiens) | ZCCHC7 (Homo sapiens)
binds: all other assays above

AACGGGTTTTTAACGGGTTCCCTATAGTGAGTGCTATTA (double strand) [M413]
binds: GATA4 (Homo sapiens) | HOXA5 (Homo sapiens) | HOXA9 (Homo sapiens) | KEAP1 (Homo sapiens) | PPARG (Homo sapiens) | SCAPER (Homo sapiens) | ZCCHC7 (Homo sapiens) | ZNF114 (Homo sapiens) | ZNF416 (Homo sapiens)
